Data reported in paper PMC11122021.

Sequences of proteins named here, by UniProt entry; tags and fusion partners are left off. A change or cut given only in a name is not applied to a line headed by its entry.
UniProt O82307: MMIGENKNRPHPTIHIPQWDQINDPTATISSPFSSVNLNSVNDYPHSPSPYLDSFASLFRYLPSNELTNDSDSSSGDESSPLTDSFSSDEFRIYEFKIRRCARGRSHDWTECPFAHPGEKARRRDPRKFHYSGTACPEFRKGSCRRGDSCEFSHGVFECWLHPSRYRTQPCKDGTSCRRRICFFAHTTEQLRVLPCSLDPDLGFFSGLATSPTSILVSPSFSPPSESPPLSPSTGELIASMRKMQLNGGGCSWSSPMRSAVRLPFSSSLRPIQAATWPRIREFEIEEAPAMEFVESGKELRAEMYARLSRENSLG

Target: GST-TZF1 (Arabidopsis thaliana) (UniProt O82307)
Assay: EMSA
Conditions: most complex did not enter the gel; 20 mM HEPES-KOH pH 7.5, 50 mM NaCl, 5 uM ZnCl2, 4 mM MgCl2 (binding buffer, mixed 1:1 with 20 mM Tris-HCl pH 8, 50 mM NaCl, 1 mM DTT in direct EMSA); recombinant protein; protein details: GST; label: 5'-32P (direct EMSA), unlabeled as competitor; probe letters rebuilt from the primers and the genome; part of a longer molecule

Question: Does “CCUUCUGGUCCAUCUGACUCUGCCUAACCCACCAUCUAGUAACGCAACGUCCAUUUUAUAUUUGAUUUUUUUUCCUUCCUUCUUCAACUCCGGGCUAAUGAUCUGAUCUCAAAUUGUAUAAAAUCGUUGCUGGAUUUUUUCUAUUUUGGGUGUGGGUUUGAUAUAUUUUGUCAACUGAGUUUCCACUU [ACA11 F4]” bind?
Answer: Result: binds

For at least one entry, the source does not settle the construct or the ends of the probe.
